# Some of the results follow. Shown are side measurements of this screen, not its main read-out; they come without a call. Most of these compounds were active or inconclusive in the main read-out, so they are no random draw. Words in brackets tell the shape of the fitted curve; partial curves, single points and poor fits give uncertain potencies.
# Assay: qHTS Assay for Modulators of Lamin A Splicing
# Conditions: HeLa LMNA splicing GFP/RFP minigene ratio, 48 h
# Summary of the method: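 S3 HeLa stable clones carrying a lamin A-EGFP splicing minigene plus DsRed2 were seeded at 600 cells/well in Opti-MEM with 2% FBS, pin-dosed and incubated 48 h at 37°C. Acumen cytometry (488 nm) gave the GFP/RFP total-intensity ratio.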
# [1] = measured here: RFP viability control channel
# [2] = measured here: GFP splicing reporter channel
SMILES,AC50 [1],AC50 [2]
NC(=O)CC[C@@H]1NC(=O)[C@H](CO)NC(=O)c2cc([N+](=O)[O-])cc(I)c2NCC[C@@H](C(N)=O)NC1=O,"2 µM [rising, partial curve, poor fit]",
COc1ccccc1N/C(N)=N/c1nc(CSc2ccc(C)cc2)cc(=O)[nH]1,"10 µM [rising, partial curve]","2.51 µM [rising, full curve]"
O=[N+]([O-])c1ccc(N=Nc2ccc(O)cc2O)cc1,"0.447 µM [rising, full curve]","0.126 µM [rising, full curve, poor fit]"
CC(=O)N1CCn2c3ccc(C)cc3c3cccc1c32,"35.5 µM [falling, single point]",
O=S(=O)(Nc1cnc2ccccc2c1)N1CCCCCC1,"10 µM [rising, partial curve]","1.78 µM [rising, full curve, poor fit]"
CCOC(=O)c1cc(C(=O)c2cc(Br)ccc2O)coc1=N,"0.355 µM [falling, full curve, poor fit]",
N#Cc1ccc(OCc2nnc(SCC(=O)N3CCCc4ccccc43)n2-c2ccccc2)cc1,"35.5 µM [rising, partial curve, poor fit]",
O=C(NCc1ccccc1)Nc1cccn(Cc2ccc(F)cc2)c1=O,"10 µM [rising, partial curve, poor fit]",
CCN(Cc1ccccc1)C(=O)c1ccc(SC)cc1OC,,"0.0224 µM [rising, full curve, poor fit]"
N/C(=N\OC(=O)CCCOc1ccc(Cl)cc1Cl)c1ccccn1,"2.82 µM [falling, partial curve, poor fit]",
CCC(Cc1ccccc1)NC(=O)CN1C(=O)CSc2ncccc21 (stereo not given),"12.6 µM [rising, partial curve]",
O=C(CN1C(=O)NC2(CCCCC2)C1=O)Nc1ccc2c(c1)CCC2,"8.91 µM [rising, partial curve]",
Cc1cc(Cl)cc2c1NC(=O)[C@]21[C@@H]2C(=O)N(Cc3ccccc3)C(=O)[C@@H]2[C@@H]2CCCN21,,"3.55 µM [rising, single point]"
OCc1nc2ccccc2n1CCCOc1ccc(Br)cc1,"15.8 µM [rising, single point]","12.6 µM [rising, partial curve]"
O=C(CNC(=S)NC(=O)c1ccc(Br)o1)c1ccccc1,"7.08 µM [rising, partial curve]",
NC(=O)c1ccc(C(F)(F)F)n(Cc2c(Cl)cccc2Cl)c1=O,"6.31 µM [falling, single point]",

# Entries of single compounds as entered above.
# COc1ccccc1N/C(N)=N/c1nc(CSc2ccc(C)cc2)cc(=O)[nH]1 is listed with AC50 [1]: 10 µM [rising, partial curve]; AC50 [2]: 2.51 µM [rising, full curve]
# NC(=O)c1ccc(C(F)(F)F)n(Cc2c(Cl)cccc2Cl)c1=O is listed with AC50 [1]: 6.31 µM [falling, single point]
